From US11964976B1, “Substituted pyrido[3′,4′:4,5]pyrrolo[3,2-c][1,6]naphthyridines as CK2 inhibitors” (KING FAISAL UNIVERSITY, priority 2023, dated 2024)

Key:
Type in all cases: cell-based
PC3 (prostate) = assay: In vitro cytotoxic activity (MTT) assay, PC3; conditions: Homo sapiens, Prostate cell; PC3 (prostate) cells, exposed for 96 hours; read-out: IC50, concentration eliciting 50% inhibition of cell proliferation
Protocol: (§1) Compounds 1-15 were screened for their in vitro cytotoxic activity utilizing a 3-(4,5-dimethyl-thiazol-2-yl)-2,5-diphenyltetrazolium bromide (MTT) assay against selected cancer human cell lines consisting of PC3 (prostate), HCT116 (colon), A375 (melanoma), H1299 (lung), MIAPaCa-2 (pancreas), HL60 (leukemia), MCF7 (breast), MDA-MB-231 (breast) (T. Mosmann, J. Immunol. Meth., 1983, 65, 55-63). The cells were cultured at 37° C. in RMPI1640 medium supplemented with 10% fetal bovine serum, 50 IU/mL penicillin, and 50 μg/mL streptomycin in a 5% CO2 incubator. All cells were sub-cultured 3 times/week by trypsinisation. Viable cells were seeded and allowed to adhere for 12 h before a test drug was added in 96-well plates at an initial density of 1.0×10^5 cells/mL. Tumor cell lines were separately exposed to various concentrations of the tested compounds followed by incubation at a temperature of 37° C. during 96 hours inside a medium of fresh RMPI 1640. Cells were subsequently incubated at 37° C. using MTT at 0.5 mg/mL during 4 hours. After removal of supernatant, formazan crystals were dissolved in isopropanol and the optical density was measured at 570 nm. CX-4945 was used as a positive control.

HCT116 (colon) = assay: In vitro cytotoxic activity (MTT) assay, HCT116; conditions: Homo sapiens, HCT-116; HCT116 (colon) cells, exposed for 96 hours; read-out: IC50, concentration eliciting 50% inhibition of cell proliferation
Protocol: as §1

A375 (melanoma) = assay: In vitro cytotoxic activity (MTT) assay, A375; conditions: Homo sapiens, A-375; A375 (melanoma) cells, exposed for 96 hours; read-out: IC50, concentration eliciting 50% inhibition of cell proliferation
Protocol: as §1

H1299 (lung) = assay: In vitro cytotoxic activity (MTT) assay, H1299; conditions: Homo sapiens, NCI-H1299; H1299 (lung) cells, exposed for 96 hours; read-out: IC50, concentration eliciting 50% inhibition of cell proliferation
Protocol: as §1

MIAPaCa-2 (pancreas) = assay: In vitro cytotoxic activity (MTT) assay, MIAPaCa-2; conditions: Homo sapiens, MIA PaCa-2; MIAPaCa-2 (pancreas) cells, exposed for 96 hours; read-out: IC50, concentration eliciting 50% inhibition of cell proliferation
Protocol: as §1

HL60 (leukemia) = assay: In vitro cytotoxic activity (MTT) assay, HL60; conditions: Homo sapiens, HL-60; HL60 (leukemia) cells, exposed for 96 hours; read-out: IC50, concentration eliciting 50% inhibition of cell proliferation
Protocol: as §1

MCF7 (breast) = assay: In vitro cytotoxic activity (MTT) assay, MCF7; conditions: Homo sapiens; MCF7 (breast) cells, exposed for 96 hours; read-out: IC50, concentration eliciting 50% inhibition of cell proliferation
Protocol: as §1

MDA-MB-231 (breast) = assay: In vitro cytotoxic activity (MTT) assay, MDA-MB-231; conditions: Homo sapiens; MDA-MB-231 (breast) cells, exposed for 96 hours; read-out: IC50, concentration eliciting 50% inhibition of cell proliferation
Protocol: as §1

`O=C(O)c1ccc2c(c1)nc(Nc1cccc(Cl)c1)c1ccncc12` [CX-4945, reference compound] showed an IC50 (PC3 (prostate)) of 2000 nM, an IC50 (HCT116 (colon)) of 2300 nM and an IC50 (A375 (melanoma)) of 4100 nM. The IC50 (H1299 (lung)) was 2300 nM, the IC50 (MIAPaCa-2 (pancreas)) was 1000 nM and the IC50 (HL60 (leukemia)) was 3700 nM. It also gave an IC50 (MCF7 (breast)) of 9100 nM and an IC50 (MDA-MB-231 (breast)) of 6200 nM.
